In patent US6030942A, “Peptides peptide analogs peptidomimetics and other small molecules useful for inhibiting the activity of ribonucleotide reductase” (The Trustees of the University of Pennsylvania, priority 1998, dated 2000):
Part of at least one peptide drawing is inferred or uncertain, most often the ends. Ends that are not written are not given here.

Molecular target: T1, mammalian ribonucleotide reductase (Bos taurus, UniProt Q32LP1)
T1 sequence (Q32LP1 1-791): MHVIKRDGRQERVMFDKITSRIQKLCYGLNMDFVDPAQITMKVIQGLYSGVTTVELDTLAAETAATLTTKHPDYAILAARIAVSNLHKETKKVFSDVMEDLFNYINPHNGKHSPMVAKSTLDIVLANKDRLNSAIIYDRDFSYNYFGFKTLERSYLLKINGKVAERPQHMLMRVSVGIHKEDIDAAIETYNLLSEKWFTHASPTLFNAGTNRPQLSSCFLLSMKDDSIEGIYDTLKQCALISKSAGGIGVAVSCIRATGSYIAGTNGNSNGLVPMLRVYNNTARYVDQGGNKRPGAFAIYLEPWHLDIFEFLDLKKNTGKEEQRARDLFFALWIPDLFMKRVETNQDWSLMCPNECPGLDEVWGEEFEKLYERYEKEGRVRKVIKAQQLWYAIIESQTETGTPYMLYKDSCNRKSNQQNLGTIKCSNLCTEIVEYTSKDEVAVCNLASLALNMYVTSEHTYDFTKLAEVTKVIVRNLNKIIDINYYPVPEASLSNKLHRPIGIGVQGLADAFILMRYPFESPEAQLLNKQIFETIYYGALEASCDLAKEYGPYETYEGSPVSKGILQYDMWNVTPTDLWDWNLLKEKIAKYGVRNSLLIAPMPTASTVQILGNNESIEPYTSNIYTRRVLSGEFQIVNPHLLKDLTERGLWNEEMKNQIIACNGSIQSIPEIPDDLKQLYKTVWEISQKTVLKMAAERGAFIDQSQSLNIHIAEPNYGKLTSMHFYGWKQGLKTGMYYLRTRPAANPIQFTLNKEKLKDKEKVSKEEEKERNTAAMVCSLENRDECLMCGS
Experiment: Peptide inhibition of mammalian ribonucleotide reductase activity
Type: biochemical
Details: Table 8; mean and average deviation of 2-3 determinations, others single

Ac-FSLDADF [Ac-FSLDADF, Acetyl-Phe-Ser-Leu-Asp-Ala-Asp-Phe]
% RI (relative inhibitory potency, (IC50 AcFTLDADF)/(IC50 peptide analog)): 25 ± 1.1%
